The assay is described as follows: qHTS Assay for Lipid Storage Modulators in Drosophila S3 Cells.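 As to cell number change: cells counted by Cell Tracker Red CMTPX staining in the red channel.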 The settings on record: BODIPY lipid droplet fluorescence, 18-24 h; for cell number change: measured here: cell count max response, cells fed with added oleic acid. The essentials: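 Laser-scanning cytometry quantifies lipid droplet accumulation (500–530 nm total intensity; droplet/cell object ratio) in oleic acid-fed (400 uM added) Drosophila S3 cells treated with a concentration series. 20 uM Triacsin C defined 100% inhibition.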
(In qHTS, concentration-response curves come from the screen itself.)

The mark [1] stands for this setting: measured here: cell number channel AC50, cells fed with added oleic acid.
Where [2] appears, read: measured here: lipid fluorescence (Fed channel) AC50, cells fed with added oleic acid.

The list shows a part of the results. These are further read-outs of the screen, such as a control signal, another cell line or another target. No call is given for them. Most of these compounds were active or inconclusive in the main read-out, so they are no random draw. The note in brackets gives the kind of curve behind each potency; many fits are weak.

Here are results for 59 molecules from PubChem BioAssay AID2685 (National Center for Advancing Translational Sciences (NCATS), 2010).

Regarding `O=C1CS/C(=C\[N+](=O)[O-])N1c1ccc(OC(F)(F)F)cc1`, the cell number change was -20.5%.

Regarding `COc1ccc(C(=O)N(C(C)C)C(C)C)c(OC)c1`, the cell number change was found to be 21.7%.

In general, AC50 refers to the concentration giving half of the maximal activity seen. Read a high AC50 as weaker potency. `O=S(=O)(/N=C(/Nc1cccc2ccccc12)c1ccccc1)c1ccc(F)cc1`: the cell number change was -32%. For the same molecule, the half-maximal activity concentration (AC50) under setting [1] is 2.31 µM [falling, full curve, poor fit]. For the same molecule, the half-maximal activity concentration (AC50) under setting [2] is 5.8 µM [falling, full curve].

Turning to `O=C(NNc1c2ccccc2nc2ccccc12)C(O)c1ccccc1` (stereo unspecified), the cell number change was -22.4%.

For the molecule `COc1ccc(-c2ccc3c(c2)S(=O)(=O)c2cccc(C(=O)NC[C@@H]4CCCO4)c2C3=O)cc1OC`, the cell number change was -88.7%. Besides, the concentration at half-maximal activity (AC50) under setting [1] was 20.6 µM [falling, partial curve]. The AC50 under setting [2] is 29.1 µM [falling, single point].

For `O=C(c1cn(CC(=O)N2CCCC2)c2ccccc12)C1CCCCC1`, the cell number change turned out to be 8.25%.

As to `O=C(CCC(=O)c1ccc(Oc2ccccc2)cc1)Nc1cccc(Cl)c1Cl`, the cell number change is -0.145%. For the same molecule, the concentration at half-maximal activity (AC50) under setting [2] was 0.92 µM [rising, full curve, poor fit].

As for `CC(C)(C)n1nnnc1C(c1ccccc1F)N1CCN(C2CCCC2)CC1` (stereo unspecified), the cell number change is 8.26%. Besides, the AC50 under setting [2] is 18.4 µM [rising, single point].

As for `CCOc1cc(-c2ccc(N)c(OCC)c2)ccc1N`, under setting [1], the AC50 is 0.58 µM [rising, single point].

As to `O=c1[nH]c2ccccc2cc1CN(c1ccccc1)S(=O)(=O)c1ccccc1`, the cell number change is -0.235%.

In the case of `CCc1nnc(NC(=O)c2ccc(F)c(S(=O)(=O)N3CCCCC3)c2)s1`, the cell number change was -21.8%.

Regarding `OC[C@H]1O[C@H](OCc2ccccc2)[C@H](O[C@@H]2OC[C@@H](O)[C@H](O)[C@H]2O)[C@@H](O)[C@@H]1O`, the cell number change is -35.1%. Besides, under setting [1], the concentration at half-maximal activity (AC50) was 29.1 µM [falling, single point]. Further, the half-maximal activity concentration (AC50) under setting [2] is 29.1 µM [falling, single point].

On to `COCCn1c(SCC(=O)N2CC(=O)Nc3ccccc32)nc2ccccc21`, for which the AC50 under setting [1] is 0.326 µM [falling, partial curve, poor fit] and the concentration at half-maximal activity (AC50) under setting [2] is 1.64 µM [falling, single point].

For `COc1cccc(-n2c(Cc3cc(=O)[nH]c(=O)[nH]3)nnc2SCc2cccc(C(F)(F)F)c2)c1`, the cell number change worked out at 33.4%. The AC50 under setting [1] is 0.58 µM [rising, full curve]. For the same molecule, the AC50 under setting [2] is 0.291 µM [rising, full curve, poor fit].

For the molecule `COc1ccc(F)cc1S(=O)(=O)N1CCN(Cc2ccc3c(c2)OCO3)CC1`, the cell number change was -11.6%.

On to `C=CCNC(=O)c1ccc(N(Cc2ccc(Cl)cc2)S(C)(=O)=O)cc1`, for which the cell number change is -3.65%. Further, the AC50 under setting [2] is 29.1 µM [falling, single point].

`Cc1cccc(NC(=S)NCc2ccc3c(c2)OCO3)c1C`: the cell number change came out at 76.2%. The half-maximal activity concentration (AC50) under setting [1] was 18.4 µM [rising, single point]. Further, the AC50 under setting [2] is 6.51 µM [rising, single point].

For the molecule `Cn1c(=NC(=O)CCS(=O)(=O)c2ccccc2)sc2cc(F)ccc21`, the cell number change is 4.98%. The AC50 under setting [2] was 6.51 µM [rising, single point].

Take `COc1cccc(C(=O)NNC2OC(CO)C(O)C2O)c1` (stereo unspecified): under setting [2], the AC50 is 1.46 µM [rising, partial curve, poor fit].

With `Cc1ccc(C(=O)NC2CC3CCC(C2)N3C)cc1` (stereo unspecified), the cell number change is -2.62%. The AC50 under setting [1] was 0.13 µM [falling, full curve, poor fit].

For `Cc1cccc(-c2n[nH]c([N+](=O)[O-])n2)c1`, under setting [2], the AC50 is 0.92 µM [falling, full curve, poor fit].

Take `COc1cc(/C=N/NC(=O)CC#N)ccc1Oc1nc(Cl)ncc1F`: the cell number change was -10.3%.

On to `CCCCNC(=O)CCc1nc2cccnc2n1Cc1ccccc1`, for which the cell number change came to 8.33%.

On to `COc1ccc(NC(=O)Cn2cc(C#N)c3ccccc32)cc1`, for which the cell number change was 68.9%. Moreover, the AC50 under setting [1] is 14.6 µM [rising, partial curve, poor fit]. For the same molecule, the AC50 under setting [2] was 18.4 µM [rising, partial curve, poor fit].

Turning to `COC(=O)Cn1cc(C(=O)C2CC2)c2ccccc21`, the cell number change is -6.23%. Also, the AC50 under setting [1] was 1.16 µM [falling, full curve, poor fit].

As to `Cc1cc(-c2nnc(SCC(=O)c3ccc(Cl)cc3)o2)no1`, the cell number change was -58%. Besides, under setting [1], the AC50 is 32.6 µM [falling, partial curve]. In addition, the AC50 under setting [2] was 29.1 µM [falling, single point].

In the case of `CC(C)C(=O)Nc1ccc(C(=O)CN2C(=O)NC3(CCOc4ccccc43)C2=O)cc1` (stereo unspecified), the cell number change is -32.5%. Under setting [1], the AC50 was 0.0058 µM [falling, full curve, poor fit]. The AC50 under setting [2] is 25.9 µM [falling, partial curve].

`CC(C)(C)c1ccc(C(=O)Nc2ccc(O)c3c(=O)cc(-c4cccc(Cl)c4)oc23)cc1`: the cell number change was -30.7%. The AC50 under setting [1] is 7.31 µM [falling, partial curve]. Also, the AC50 under setting [2] is 20.6 µM [falling, single point].

With `O=C(COC(=O)c1nsc(Cl)c1Cl)NC1CCCC1`, the cell number change is -7.66%. The AC50 under setting [2] was 4.11 µM [rising, full curve].

Turning to `CCC(C)[C@H](NS(=O)(=O)c1ccc(C)cc1)C(=O)N1CCC(C(=O)N2CCC(C(N)=O)CC2)CC1` (stereo partly specified), the cell number change is 26.5%. Moreover, the AC50 under setting [2] was 29.1 µM [rising, partial curve].

With `Cc1nc(N2CCN(C)CC2)c2sc(=S)n(C)c2n1`, the cell number change is 3.2%.

With `C#CCOCCOCCOCCNc1nc(N2CCN(C(=O)CCCCCCCCCCNC(=O)Cn3cc(C[C@@H](C)O)nn3)CC2)nc(N2CCN(C(=O)CCCCCCCCCCNC(=O)[C@H](CCCCN)n3cc(CCCC(=O)O)nn3)CC2)n1`, the cell number change was determined as 8.05%. In addition, under setting [2], the AC50 is 29.1 µM [falling, single point].

In the case of `CC(=O)Nc1cccc(-c2csc(Nc3ncccn3)n2)c1`, the cell number change amounted to 150%. The AC50 under setting [1] is 0.651 µM [rising, single point]. Also, the half-maximal activity concentration (AC50) under setting [2] was 6.51 µM [falling, single point].

On to `Cc1oc(-c2ccc(Cl)cc2)nc1CS(=O)CC(=O)NC1CC1` (stereo unspecified), for which the cell number change was -24%.

`Cn1c(=O)n(C)c2cc(NC(=O)c3cccc([N+](=O)[O-])c3)c(Br)cc21`: the cell number change is 26.6%. For the same molecule, under setting [2], the AC50 is 29.1 µM [rising, single point].

With `COc1cccc(-c2c(C(=O)N/N=C(\C)c3ccncc3)nnn2-c2nonc2N)c1`, the cell number change is 9.68%. Further, under setting [2], the concentration at half-maximal activity (AC50) was 0.731 µM [falling, single point].

Consider `CCOC(=O)C1=C(C)NC(SCC(=O)Nc2nc(C)cs2)=C(C#N)C1c1cccs1` (stereo unspecified), for which the AC50 under setting [2] is 0.092 µM [falling, full curve, poor fit].

For `COc1ccc(N(CC(=O)O)S(=O)(=O)c2ccc(OC)c(OC)c2)cc1`, the cell number change was found to be 35.3%.

For `C/C(N)=C(/C#N)C(=O)COC(=O)Cc1coc2ccc3ccccc3c12`, the cell number change came out at 124%. Besides, under setting [1], the half-maximal activity concentration (AC50) was 4.61 µM [rising, full curve]. The half-maximal activity concentration (AC50) under setting [2] was 3.66 µM [rising, full curve].

As to `CCN(/N=C/c1ccc(Cl)cc1)c1cc(=O)n(C)c(=O)[nH]1`, the cell number change was -14%. Also, under setting [2], the AC50 was 0.13 µM [rising, full curve, poor fit].

Regarding `CCN1CCN(S(=O)(=O)c2ccc(Cl)c(C(=O)NC(C)(C)C)c2)CC1`, the cell number change is -2.76%. For the same molecule, under setting [2], the AC50 is 0.651 µM [falling, single point].

Take `FC(F)(F)c1ccc(CN2CCCCCC2)cc1`: the cell number change is -11.3%. The AC50 under setting [1] was 0.58 µM [falling, full curve, poor fit]. Moreover, under setting [2], the AC50 is 6.51 µM [falling, single point].

With `CCOc1ccccc1NC(=O)COc1coc(CN2CCc3ccccc32)cc1=O`, the cell number change amounted to 32.7%. The half-maximal activity concentration (AC50) under setting [1] is 29.1 µM [rising, single point].

Turning to `CCOC(=O)NC(=O)CSc1nc(-c2ccc(C)c(C)c2)cn1-c1ccccc1`, under setting [1], the half-maximal activity concentration (AC50) is 6.51 µM [falling, single point].

In the case of `CCC[N+]1(CC#CC(O)(c2ccccc2)C2CCCCC2)CCCCC1` (stereo unspecified), the cell number change is -8.75%.

With `CC1CCC(NC(=O)c2cc(C3CC3)nn2-c2ccccc2)CC1` (stereo unspecified), the cell number change is -8.95%.

As to `COc1ccc(C(=O)Oc2cc(N)n(S(=O)(=O)c3ccccc3)n2)cc1`, the cell number change came out at 6.22%. For the same molecule, under setting [2], the half-maximal activity concentration (AC50) was 6.51 µM [falling, single point].

Take `CCN1CCN(c2cc(C)c3cc(NC(=S)N4CC(C)CC(C)C4)ccc3n2)CC1` (stereo unspecified): the cell number change was 9.62%.

For the molecule `Cc1[nH]c(=O)[nH]c(=O)c1S(=O)(=O)N1CCCC(C(=O)NCc2ccc3c(c2)OCO3)C1` (stereo unspecified), the cell number change was 44.2%. Further, the AC50 under setting [1] was 6.51 µM [rising, single point]. Moreover, the concentration at half-maximal activity (AC50) under setting [2] was 5.17 µM [rising, single point].

For the molecule `ON(Cc1c(F)cccc1Cl)Cc1c(F)cccc1Cl`, the cell number change was found to be 48%. In addition, the AC50 under setting [1] was 14.6 µM [rising, single point]. For the same molecule, the concentration at half-maximal activity (AC50) under setting [2] was 29.1 µM [rising, single point].

As for `COc1nnc(-c2ccc(N3CCOCC3)c(NC(=O)c3ccco3)c2)c2ccccc12`, under setting [2], the AC50 is 0.731 µM [rising, full curve].

In the case of `Cc1ccc(-n2sc3ccccc3c2=O)cc1`, the cell number change was -66.2%. In addition, the half-maximal activity concentration (AC50) under setting [1] was 3.26 µM [falling, full curve]. Moreover, the concentration at half-maximal activity (AC50) under setting [2] is 3.26 µM [falling, full curve].

For the molecule `O=C(Nc1ccccc1Cc1ccccc1)C1CC(=O)N(c2ccc3c(c2)OCCO3)C1` (stereo unspecified), under setting [2], the AC50 was 18.4 µM [rising, partial curve].

Turning to `O=C(Oc1ccc(Cl)cc1)c1ccc2nccnc2c1`, the cell number change is -66.3%. Under setting [1], the concentration at half-maximal activity (AC50) was 29.1 µM [falling, single point]. For the same molecule, under setting [2], the AC50 is 29.1 µM [falling, single point].

As to `O=C(NCC#CCOCc1ccccc1)c1ccccc1`, the cell number change was -7.08%. Besides, under setting [2], the AC50 is 6.51 µM [rising, single point].

For `Cc1ccc(S(=O)(=O)CCN2CCC(O)(c3ccccc3)CC2)cc1`, the cell number change was -14.8%.

`O=C(CSc1nnc(COc2cccc3ccccc23)o1)N1c2ccccc2CCc2ccccc21`: the cell number change came to 2.74%. Further, the concentration at half-maximal activity (AC50) under setting [2] is 2.06 µM [rising, partial curve].

On to `CCCCc1nnc(NC(=O)Cc2ccc(S(=O)(=O)N3CCOCC3)s2)s1`, for which the cell number change was -6.31%. Also, the AC50 under setting [2] was 2.91 µM [rising, partial curve].

As to `CC(C)(C)c1ccc(C(=O)OCC(=O)NCc2ccco2)cc1`, the cell number change is -2.04%. For the same molecule, the AC50 under setting [2] is 23.1 µM [falling, single point].
